Assay results as given in patent publication US20190284292A1.
No constants are given. Whether binding was seen depends on the method and setting. Binding calls can cover weak binding; strength is not graded here. Each block holds one binder with its values, some of them ahead of it.

Molecular target: monkey 4-1BB (monkey)
Assay: binding to 293T cells expressing monkey 4-1BB

binding: binds
B1: ZW107 (antibody, V domains shown)
VH: QVQLQQSGAELVRPGTSVKISCKASGYAFTNYWLGWVKQRPGHGLEWIGDIYPGNGNNYYSEKFKDKATLTADKSSSTVYIRLSSLTSEDSAVYFCARHGSFRSAMDYWGQGTSVTVSS
VL: DIQMTQSPASPSASVGETVTITCRASENIYSYLAWYQQKQGKSPQLLVYNAKTLADGVPSRFSGSGSGTQFSLKINSLQPEDFGSYYCQHHYGTPPTFGGGTKLEIK

binding: binds
B2: ZW106 (antibody, V domains shown)
VH: QVQLQQPESELVRPGGSVKLSCKASGYTFTSYWMDWVKQRHGQGLEWIGNIYPDSGGTNYAEKFKSKATLTVDTSSSTAYMHLSSLTSEDSAVYYCTREEALGGYYELTYWGQGTLVTVSA
VL: DIVLTQSPASLPVSLGQRATISCRASQSVSTSSYSYMHWYQQKPGQPPKLLIKYASNLESGVPARFSGSGSGTDFTLNIHPVEEEDTATYYCQHSWEIPYTFGGGTKLEIE
